The other results are listed elsewhere or left out. The main result of the screen is listed elsewhere. These columns were measured beside it and carry no call. The list favours compounds with an active or inconclusive main result. The note in brackets gives the kind of curve behind each potency; many fits are weak.
Assay: qHTS Assay for Modulators of Lamin A Splicing
Settings: HeLa LMNA splicing GFP/RFP minigene ratio, 48 h
Summary of the method: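 S3 HeLa stable clones carrying a lamin A-EGFP splicing minigene plus DsRed2 were seeded at 600 cells/well in Opti-MEM with 2% FBS, pin-dosed and incubated 48 h at 37°C. Acumen cytometry (488 nm) gave the GFP/RFP total-intensity ratio.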

[1] = measured here: GFP splicing reporter channel
[2] = measured here: RFP viability control channel

Compound	AC50 [1]	AC50 [2]
O=C(/C(=N/N=C/c1ccc(O)c(O)c1O)c1ccccc1)c1ccccc1	35.5 µM [falling, single point]	
O=C(NCCCn1ccnc1)C(=O)NCC1OCCN1S(=O)(=O)c1ccc(Cl)cc1 (stereo not drawn)		7.94 µM [rising, single point]
COc1ccc(C)cc1-n1nnnc1SCC(=O)c1ccc2c(c1)OCCO2	11.2 µM [rising, partial curve]	14.1 µM [rising, partial curve]
COc1ccc(NC(=S)N(CCN2CCOCC2)Cc2cc3cc4c(cc3[nH]c2=O)OCCO4)cc1	0.158 µM [falling, full curve, poor fit]	0.0251 µM [falling, full curve, poor fit]
Cc1ccsc1C(=O)OCC(=O)N1CCc2ccccc2C1		2 µM [falling, partial curve, poor fit]
C=CCN1CCc2cc(O)c(O)cc2C(c2ccccc2)C1 (stereo not drawn)	35.5 µM [falling, single point]	
CCCOc1ccc(-c2nc[nH]c2[N+](=O)[O-])cc1	0.447 µM [falling, partial curve]	
CCC1CCCCN1C(=O)c1sc2nc(C)nc(N(CC)CC)c2c1C (stereo not drawn)	1.26 µM [falling, partial curve]	5.01 µM [falling, partial curve]
Cc1cc(C)c2c(-n3cccc3)c(C(=O)O)sc2n1	12.6 µM [rising, single point]	10 µM [rising, partial curve, poor fit]
Nc1ncnc2nc[nH]c12	2.24 µM [falling, partial curve, poor fit]	2.51 µM [falling, partial curve, poor fit]
COc1ccc(NC(=O)C2CCN(S(=O)(=O)c3ccc(Br)s3)CC2)cc1OC	14.1 µM [rising, partial curve, poor fit]	15.8 µM [rising, single point]
Cc1cc(=O)[nH]c(NCCO)n1	0.0282 µM [falling, full curve, poor fit]	
S=c1[nH]nc(COc2ccccc2)n1/N=C/c1ccco1		0.178 µM [rising, full curve, poor fit]
O=c1c2cnn(-c3ccccc3)c2nnn1Cc1ccccn1		35.5 µM [rising, single point]
CSc1ccc(CNC(=O)CCc2c(C)nn(-c3ccc(N4CCCC4)nn3)c2C)cc1	0.224 µM [falling, full curve, poor fit]	0.251 µM [falling, full curve, poor fit]
O=c1[nH]c(Cc2cccs2)nc2scc(-c3ccc(Cl)cc3)c12	2.51 µM [rising, partial curve]	
CCOC(=O)c1c(NC(=O)CSc2nnc(-c3c[nH]c4ccccc34)n2C)sc2c1CCCC2		20 µM [rising, partial curve]
Cc1cc(C)c2nc(NC(=O)c3ccc(S(=O)(=O)N4CCC(C)CC4)cc3)sc2c1		10 µM [falling, partial curve]
N#CC1=C2SCC(O)(c3ccccc3)N2C(=O)CC1c1cccs1 (stereo not drawn)	8.91 µM [rising, partial curve, poor fit]	7.94 µM [rising, partial curve]

Compound	AC50 [1]	AC50 [2]
O=C(Nc1ccccc1)Nc1nc(-c2ccc(F)cc2)cs1		31.6 µM [rising, single point]
Cc1ccc(-c2noc(C3CCN(C(=O)Nc4ccc(C#N)cc4)CC3)n2)o1		20 µM [rising, single point]
S=C(NCCOCCOCCNC(=S)Nc1ccccc1)Nc1ccccc1	11.2 µM [falling, single point]	35.5 µM [falling, single point]
CCc1ccc2nc(SCC(=O)N3CC(=O)Nc4ccccc43)c(C#N)cc2c1		17.8 µM [rising, partial curve, poor fit]
COc1ccc(C(=O)Nc2ccccc2-c2nc3ccccc3s2)c(OC)c1	1.58 µM [falling, full curve, poor fit]	2 µM [falling, full curve]
Cc1ccc2nc(C3CCCN(C(=S)Nc4cccc(C)c4C)C3)[nH]c2c1 (stereo not drawn)		0.0282 µM [falling, partial curve]
COc1ccc(Nc2cc(C(=O)NCCCN(C)Cc3ccccc3)c3ccccc3n2)cc1	5.62 µM [falling, single point]	
CCN(CC)C(=O)N1CCC(NC(=O)c2ccc(C(C)(C)C)cc2)CC1	15.8 µM [rising, single point]	
C=CCNC(=O)c1ccc(C2SCC(=O)N2Cc2ccccc2)cc1 (stereo not drawn)		0.0501 µM [falling, full curve, poor fit]
O=C(CCl)N(C/C=C/c1ccccc1)c1ccc2c(c1)OCCO2		3.98 µM [falling, single point]
COc1ccc(-c2nc(C#N)c(NCc3ccc(F)cc3)o2)cc1OC		20 µM [rising, single point]
CC(=O)c1ccc(NC(=O)CSc2nc(C3CCCC3)nc3c2c(=O)n(C)c(=O)n3C)cc1		1.58 µM [rising, partial curve]
CCN(CC)S(=O)(=O)c1ccc(OC)c(NC(=O)CSc2cc(Cl)ccc2Cl)c1	11.2 µM [rising, single point]	15.8 µM [rising, single point]
CCOc1ccc(NC(=O)c2nsc(Cl)c2Cl)cc1		3.16 µM [falling, full curve, poor fit]
Cc1ccc(N2C(=O)CN(Cc3sccc3C)C2=S)cc1C		31.6 µM [rising, single point]
NS(=O)(=O)c1cc2c(cc1Cl)NC(C1C[C@H]3C=C[C@@H]1C3)NS2(=O)=O (stereo partly drawn)	22.4 µM [rising, single point]	6.31 µM [falling, partial curve]
COc1cccc(CC2(CO)CCCN(Cc3cc(F)ccc3-n3cccn3)C2)c1 (stereo not drawn)	28.2 µM [falling, partial curve]	12.6 µM [falling, partial curve]
COc1nc(Cl)cn(-c2ccc(C)cc2)c1=O		0.0126 µM [falling, full curve, poor fit]
O=C(Nc1cc(=O)c2ccccc2o1)N1CCOCC1		22.4 µM [rising, single point]

Ordered by molar mass (descending): part of the list above
Compound	AC50 [1]	AC50 [2]
COc1ccc(NC(=S)N(CCN2CCOCC2)Cc2cc3cc4c(cc3[nH]c2=O)OCCO4)cc1	0.158 µM [falling, full curve, poor fit]	0.0251 µM [falling, full curve, poor fit]
CCOC(=O)c1c(NC(=O)CSc2nnc(-c3c[nH]c4ccccc34)n2C)sc2c1CCCC2		20 µM [rising, partial curve]
CCN(CC)S(=O)(=O)c1ccc(OC)c(NC(=O)CSc2cc(Cl)ccc2Cl)c1	11.2 µM [rising, single point]	15.8 µM [rising, single point]
S=C(NCCOCCOCCNC(=S)Nc1ccccc1)Nc1ccccc1	11.2 µM [falling, single point]	35.5 µM [falling, single point]
COc1ccc(C)cc1-n1nnnc1SCC(=O)c1ccc2c(c1)OCCO2	11.2 µM [rising, partial curve]	14.1 µM [rising, partial curve]
COc1ccc(C(=O)Nc2ccccc2-c2nc3ccccc3s2)c(OC)c1	1.58 µM [falling, full curve, poor fit]	2 µM [falling, full curve]
COc1ccc(-c2nc(C#N)c(NCc3ccc(F)cc3)o2)cc1OC		20 µM [rising, single point]
CCOc1ccc(NC(=O)c2nsc(Cl)c2Cl)cc1		3.16 µM [falling, full curve, poor fit]
O=C(Nc1ccccc1)Nc1nc(-c2ccc(F)cc2)cs1		31.6 µM [rising, single point]
O=C(Nc1cc(=O)c2ccccc2o1)N1CCOCC1		22.4 µM [rising, single point]
CCCOc1ccc(-c2nc[nH]c2[N+](=O)[O-])cc1	0.447 µM [falling, partial curve]	

Next part

Compound	AC50 [1]	AC50 [2]
C=CC1=C(C)/C(=C/c2[nH]c(Cc3[nH]c(/C=C4\NC(=O)C(C)=C4C=C)c(C)c3CCC(=O)O)c(CCC(=O)O)c2C)NC1=O		17.8 µM [rising, single point]
Cc1ccc(-n2c(C)cc(/C=N/NC(N)=S)c2C)cc1		14.1 µM [rising, single point]
C=CCN1C(=O)/C(=C/c2ccc(O)c(OC)c2)S/C1=N/c1nccs1	12.6 µM [rising, partial curve, poor fit]	25.1 µM [rising, single point]
COc1ccc(C(CNC(=O)/C=C/c2c(Cl)nc3ccccn23)N(C)C)cc1 (stereo not drawn)	12.6 µM [falling, single point]	
COc1cccc(-c2cncnc2NCCc2c[nH]c3ccc(OC)cc23)c1	7.08 µM [falling, partial curve]	8.91 µM [falling, partial curve, poor fit]
COc1cc(N)c(Cl)cc1C(=O)N[C@H]1CCN(CCCOc2ccc(F)cc2)C[C@H]1OC	0.562 µM [falling, full curve, poor fit]	
COc1ccc(NC(=O)Cn2cnc3c(oc4ccccc43)c2=O)cc1OC	1.12 µM [rising, full curve]	
C/C(CC(=O)NC(C)C)=N\NC(=O)C(c1ccccc1)c1ccccc1		12.6 µM [falling, partial curve, poor fit]
Cc1ccc(-n2nc3cc(C)c(NC(=S)NC(=O)/C=C/c4ccco4)cc3n2)cc1	22.4 µM [rising, single point]	
Cc1ccc(/C=N/NC(=O)Cn2cnc3ccccc32)cc1		5.62 µM [rising, single point]
CCOC(=O)C1CCN(CC(=O)Nc2ccc(OC)c(Cl)c2)CC1		0.251 µM [rising, partial curve]
CCN(CC)S(=O)(=O)c1ccc2oc(SCc3ccc(F)cc3)nc2c1		2 µM [rising, partial curve]
Fc1ccc(N2CCN(Cc3ccccn3)CC2)cc1		3.98 µM [rising, single point]
CC(C)(C)NC(=O)[C@H]1CC[C@H]2[C@@H]3CC[C@H]4NC(=O)C=C[C@]4(C)[C@H]3CC[C@]12C		5.62 µM [falling, single point]
COc1ccccc1N1CCN(c2nc(-c3ccc(C)cc3)nc3ccccc23)CC1		2 µM [rising, full curve, poor fit]
COc1cccc2cc(C(=O)N(Cc3cccs3)CC3CCCO3)c(=O)oc12 (stereo not drawn)	0.794 µM [rising, single point]	
CCSC1=N/C(=C/c2ccsc2)C(=O)N1c1ccccc1	31.6 µM [rising, single point]	12.6 µM [rising, partial curve, poor fit]
CCOC(=O)c1csc(NC(=O)c2ccc(S(=O)(=O)N(CC)CC)cc2)n1		11.2 µM [rising, partial curve]
Nc1nnc(CC(=O)N/N=C/c2ccc(-c3ccccc3)o2)s1		0.141 µM [rising, full curve, poor fit]

— PubChem BioAssay AID1487 (National Center for Advancing Translational Sciences (NCATS), 2009)
